This is one part of the list.
Key:
Assay in all cases: log2 fold change, soluble protein after heating vs DMSO (PISA); higher = thermal stabilisation; K562 cells, 10 uM, 30 min; active = over 0.2 and 3.5 SD of the protein, either way, in both replicates (recomputed)
[1] = compound: C1=CC=C(C=C1)[C@H](COC2=CC3=C(C=C2)NC(=O)N3)NC(=O)C4=CC=CN(C4=O)CC5=CC(=C(C=C5)F)F
Method in brief: (§1)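 Soluble protein was defined as the supernatant after 21,000xg for 90 min. It came from K562 cells at 2×10^6 cells/mL given 10 μM compound for 30 min, heated in aliquots for 3 min across 48°C-58°C, pooled, and extracted in PBS with 0.5% NP-40 at 4°C, and was quantified by TMTpro 16plex LC-MS/MS with equalised channel sums. Thermal stability against control samples, from duplicates, is reported as log2 fold change.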

Chains of the proteins cited; added tags and fusions are not shown. Lines headed by an entry give the natural chain unless they say otherwise; changes in a name come on top.
UniProt Q9Y6B6: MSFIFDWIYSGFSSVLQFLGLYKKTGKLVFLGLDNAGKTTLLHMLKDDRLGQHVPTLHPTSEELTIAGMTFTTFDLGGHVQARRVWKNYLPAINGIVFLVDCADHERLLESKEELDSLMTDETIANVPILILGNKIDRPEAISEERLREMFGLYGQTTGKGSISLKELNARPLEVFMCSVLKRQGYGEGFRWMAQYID
UniProt Q15437: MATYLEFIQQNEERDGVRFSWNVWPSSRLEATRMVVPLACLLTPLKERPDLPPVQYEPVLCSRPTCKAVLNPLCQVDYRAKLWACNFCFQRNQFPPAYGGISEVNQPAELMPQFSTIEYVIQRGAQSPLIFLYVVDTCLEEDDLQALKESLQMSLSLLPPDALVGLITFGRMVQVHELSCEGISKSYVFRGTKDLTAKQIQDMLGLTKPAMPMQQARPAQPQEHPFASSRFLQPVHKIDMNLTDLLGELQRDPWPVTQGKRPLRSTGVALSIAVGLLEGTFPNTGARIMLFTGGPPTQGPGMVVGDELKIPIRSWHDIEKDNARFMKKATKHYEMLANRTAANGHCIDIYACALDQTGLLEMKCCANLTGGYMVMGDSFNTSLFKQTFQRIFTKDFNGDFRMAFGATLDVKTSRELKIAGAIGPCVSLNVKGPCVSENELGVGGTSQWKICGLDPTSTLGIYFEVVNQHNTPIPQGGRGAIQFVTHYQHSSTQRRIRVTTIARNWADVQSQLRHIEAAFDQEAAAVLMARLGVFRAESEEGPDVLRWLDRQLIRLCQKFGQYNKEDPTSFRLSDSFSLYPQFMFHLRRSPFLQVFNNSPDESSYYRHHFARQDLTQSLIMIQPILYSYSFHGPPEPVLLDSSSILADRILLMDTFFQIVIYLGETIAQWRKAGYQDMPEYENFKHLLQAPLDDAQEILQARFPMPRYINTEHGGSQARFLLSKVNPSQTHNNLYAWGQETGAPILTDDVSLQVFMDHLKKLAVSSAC
UniProt O15127: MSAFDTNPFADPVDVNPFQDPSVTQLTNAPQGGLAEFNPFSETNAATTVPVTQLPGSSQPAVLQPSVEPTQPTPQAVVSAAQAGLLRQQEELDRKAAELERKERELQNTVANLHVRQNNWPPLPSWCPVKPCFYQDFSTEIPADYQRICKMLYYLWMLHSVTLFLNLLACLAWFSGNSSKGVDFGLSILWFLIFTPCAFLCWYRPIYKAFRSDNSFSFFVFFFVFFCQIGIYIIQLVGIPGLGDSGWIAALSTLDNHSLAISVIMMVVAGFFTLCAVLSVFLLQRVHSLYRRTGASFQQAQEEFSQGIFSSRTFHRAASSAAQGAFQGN
UniProt A3KN83: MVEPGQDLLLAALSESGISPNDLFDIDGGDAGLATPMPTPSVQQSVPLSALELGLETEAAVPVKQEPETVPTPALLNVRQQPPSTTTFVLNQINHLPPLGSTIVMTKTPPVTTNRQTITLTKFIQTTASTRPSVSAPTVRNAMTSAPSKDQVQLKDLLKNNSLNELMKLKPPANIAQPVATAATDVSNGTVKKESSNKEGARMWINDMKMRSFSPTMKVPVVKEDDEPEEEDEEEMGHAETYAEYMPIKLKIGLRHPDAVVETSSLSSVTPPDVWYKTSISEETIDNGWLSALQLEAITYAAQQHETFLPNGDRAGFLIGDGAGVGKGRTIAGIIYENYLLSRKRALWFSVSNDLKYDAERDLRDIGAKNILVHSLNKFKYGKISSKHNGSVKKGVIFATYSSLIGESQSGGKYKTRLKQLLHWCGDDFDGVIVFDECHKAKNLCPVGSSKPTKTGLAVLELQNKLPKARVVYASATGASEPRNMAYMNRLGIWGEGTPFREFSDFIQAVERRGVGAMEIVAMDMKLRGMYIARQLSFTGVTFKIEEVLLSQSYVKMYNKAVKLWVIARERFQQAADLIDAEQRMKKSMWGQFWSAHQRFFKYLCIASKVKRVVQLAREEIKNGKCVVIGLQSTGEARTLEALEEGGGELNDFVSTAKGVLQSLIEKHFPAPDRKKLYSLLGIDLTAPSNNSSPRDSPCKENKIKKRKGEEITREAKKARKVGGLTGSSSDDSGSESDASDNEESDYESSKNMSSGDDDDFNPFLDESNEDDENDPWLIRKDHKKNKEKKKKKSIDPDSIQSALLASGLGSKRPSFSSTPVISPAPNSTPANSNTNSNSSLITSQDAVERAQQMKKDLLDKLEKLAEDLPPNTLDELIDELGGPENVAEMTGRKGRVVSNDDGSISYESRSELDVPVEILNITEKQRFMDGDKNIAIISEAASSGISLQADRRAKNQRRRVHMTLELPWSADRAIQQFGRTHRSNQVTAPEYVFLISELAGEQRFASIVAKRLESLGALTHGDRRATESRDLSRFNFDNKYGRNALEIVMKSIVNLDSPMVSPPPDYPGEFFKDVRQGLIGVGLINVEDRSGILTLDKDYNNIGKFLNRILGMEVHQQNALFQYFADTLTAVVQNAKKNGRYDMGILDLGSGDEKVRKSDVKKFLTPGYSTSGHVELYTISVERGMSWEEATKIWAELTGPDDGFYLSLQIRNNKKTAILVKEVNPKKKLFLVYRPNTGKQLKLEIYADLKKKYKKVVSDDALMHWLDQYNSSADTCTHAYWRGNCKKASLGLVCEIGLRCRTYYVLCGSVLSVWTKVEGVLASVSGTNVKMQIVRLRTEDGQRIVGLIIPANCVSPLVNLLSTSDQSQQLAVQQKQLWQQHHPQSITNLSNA
UniProt O95197: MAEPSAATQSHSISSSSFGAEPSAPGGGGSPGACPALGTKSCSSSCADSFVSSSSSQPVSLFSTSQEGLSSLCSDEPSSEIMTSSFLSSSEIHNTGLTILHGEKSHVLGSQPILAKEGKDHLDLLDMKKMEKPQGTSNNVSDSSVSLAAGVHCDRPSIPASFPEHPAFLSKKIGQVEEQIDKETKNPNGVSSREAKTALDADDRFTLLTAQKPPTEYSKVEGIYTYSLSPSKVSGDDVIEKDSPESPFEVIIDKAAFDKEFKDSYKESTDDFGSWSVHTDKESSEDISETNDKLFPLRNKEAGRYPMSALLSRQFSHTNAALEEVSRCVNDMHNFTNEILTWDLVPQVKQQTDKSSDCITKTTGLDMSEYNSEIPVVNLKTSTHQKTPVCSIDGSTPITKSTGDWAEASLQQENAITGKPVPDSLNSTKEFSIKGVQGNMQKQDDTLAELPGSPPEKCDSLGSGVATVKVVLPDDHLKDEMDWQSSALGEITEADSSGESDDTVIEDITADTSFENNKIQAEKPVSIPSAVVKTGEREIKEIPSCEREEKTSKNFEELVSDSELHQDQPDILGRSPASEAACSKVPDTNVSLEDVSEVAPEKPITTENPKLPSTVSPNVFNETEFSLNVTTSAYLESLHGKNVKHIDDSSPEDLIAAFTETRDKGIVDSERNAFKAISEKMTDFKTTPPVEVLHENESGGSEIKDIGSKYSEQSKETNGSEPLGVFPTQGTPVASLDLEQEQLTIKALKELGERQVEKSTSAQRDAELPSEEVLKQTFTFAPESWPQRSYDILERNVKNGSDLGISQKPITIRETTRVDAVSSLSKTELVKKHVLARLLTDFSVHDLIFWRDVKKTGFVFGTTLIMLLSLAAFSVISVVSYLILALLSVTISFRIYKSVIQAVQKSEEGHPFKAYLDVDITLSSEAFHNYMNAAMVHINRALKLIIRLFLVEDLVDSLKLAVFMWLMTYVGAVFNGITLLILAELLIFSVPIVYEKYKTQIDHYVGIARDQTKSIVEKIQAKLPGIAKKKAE
UniProt Q9UPN6: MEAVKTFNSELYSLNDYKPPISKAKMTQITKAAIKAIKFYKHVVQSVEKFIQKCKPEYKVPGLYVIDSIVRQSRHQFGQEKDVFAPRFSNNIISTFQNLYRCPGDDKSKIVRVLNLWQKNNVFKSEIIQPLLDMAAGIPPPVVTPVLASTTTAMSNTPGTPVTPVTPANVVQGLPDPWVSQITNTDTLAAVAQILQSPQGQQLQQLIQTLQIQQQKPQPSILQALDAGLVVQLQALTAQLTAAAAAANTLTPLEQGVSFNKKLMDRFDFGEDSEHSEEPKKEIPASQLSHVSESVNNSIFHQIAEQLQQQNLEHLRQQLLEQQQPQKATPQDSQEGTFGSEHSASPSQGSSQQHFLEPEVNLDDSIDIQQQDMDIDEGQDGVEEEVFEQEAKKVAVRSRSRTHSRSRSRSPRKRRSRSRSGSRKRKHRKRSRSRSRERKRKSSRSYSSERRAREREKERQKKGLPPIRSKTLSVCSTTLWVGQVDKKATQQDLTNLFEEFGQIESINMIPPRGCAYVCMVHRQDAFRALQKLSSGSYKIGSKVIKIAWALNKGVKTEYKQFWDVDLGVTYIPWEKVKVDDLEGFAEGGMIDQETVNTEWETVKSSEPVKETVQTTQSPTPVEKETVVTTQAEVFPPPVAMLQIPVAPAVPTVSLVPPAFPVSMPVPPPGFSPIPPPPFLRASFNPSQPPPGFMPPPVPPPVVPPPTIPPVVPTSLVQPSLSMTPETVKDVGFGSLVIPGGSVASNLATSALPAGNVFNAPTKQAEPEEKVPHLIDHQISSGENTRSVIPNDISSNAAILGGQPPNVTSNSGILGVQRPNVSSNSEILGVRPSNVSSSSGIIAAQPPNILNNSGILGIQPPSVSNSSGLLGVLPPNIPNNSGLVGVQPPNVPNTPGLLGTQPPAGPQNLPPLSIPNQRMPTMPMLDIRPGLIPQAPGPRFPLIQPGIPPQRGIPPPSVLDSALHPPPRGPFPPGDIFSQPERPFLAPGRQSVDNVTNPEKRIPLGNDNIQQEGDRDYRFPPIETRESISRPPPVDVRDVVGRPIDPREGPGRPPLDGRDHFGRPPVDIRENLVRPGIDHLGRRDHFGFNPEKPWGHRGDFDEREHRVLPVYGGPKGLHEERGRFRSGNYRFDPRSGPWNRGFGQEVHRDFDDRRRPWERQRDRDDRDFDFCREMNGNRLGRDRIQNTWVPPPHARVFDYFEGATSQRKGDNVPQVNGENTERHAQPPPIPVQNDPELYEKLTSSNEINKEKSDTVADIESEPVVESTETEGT
UniProt P25815: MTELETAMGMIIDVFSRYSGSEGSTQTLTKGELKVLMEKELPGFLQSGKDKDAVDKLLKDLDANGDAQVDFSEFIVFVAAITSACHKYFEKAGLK
UniProt O95487: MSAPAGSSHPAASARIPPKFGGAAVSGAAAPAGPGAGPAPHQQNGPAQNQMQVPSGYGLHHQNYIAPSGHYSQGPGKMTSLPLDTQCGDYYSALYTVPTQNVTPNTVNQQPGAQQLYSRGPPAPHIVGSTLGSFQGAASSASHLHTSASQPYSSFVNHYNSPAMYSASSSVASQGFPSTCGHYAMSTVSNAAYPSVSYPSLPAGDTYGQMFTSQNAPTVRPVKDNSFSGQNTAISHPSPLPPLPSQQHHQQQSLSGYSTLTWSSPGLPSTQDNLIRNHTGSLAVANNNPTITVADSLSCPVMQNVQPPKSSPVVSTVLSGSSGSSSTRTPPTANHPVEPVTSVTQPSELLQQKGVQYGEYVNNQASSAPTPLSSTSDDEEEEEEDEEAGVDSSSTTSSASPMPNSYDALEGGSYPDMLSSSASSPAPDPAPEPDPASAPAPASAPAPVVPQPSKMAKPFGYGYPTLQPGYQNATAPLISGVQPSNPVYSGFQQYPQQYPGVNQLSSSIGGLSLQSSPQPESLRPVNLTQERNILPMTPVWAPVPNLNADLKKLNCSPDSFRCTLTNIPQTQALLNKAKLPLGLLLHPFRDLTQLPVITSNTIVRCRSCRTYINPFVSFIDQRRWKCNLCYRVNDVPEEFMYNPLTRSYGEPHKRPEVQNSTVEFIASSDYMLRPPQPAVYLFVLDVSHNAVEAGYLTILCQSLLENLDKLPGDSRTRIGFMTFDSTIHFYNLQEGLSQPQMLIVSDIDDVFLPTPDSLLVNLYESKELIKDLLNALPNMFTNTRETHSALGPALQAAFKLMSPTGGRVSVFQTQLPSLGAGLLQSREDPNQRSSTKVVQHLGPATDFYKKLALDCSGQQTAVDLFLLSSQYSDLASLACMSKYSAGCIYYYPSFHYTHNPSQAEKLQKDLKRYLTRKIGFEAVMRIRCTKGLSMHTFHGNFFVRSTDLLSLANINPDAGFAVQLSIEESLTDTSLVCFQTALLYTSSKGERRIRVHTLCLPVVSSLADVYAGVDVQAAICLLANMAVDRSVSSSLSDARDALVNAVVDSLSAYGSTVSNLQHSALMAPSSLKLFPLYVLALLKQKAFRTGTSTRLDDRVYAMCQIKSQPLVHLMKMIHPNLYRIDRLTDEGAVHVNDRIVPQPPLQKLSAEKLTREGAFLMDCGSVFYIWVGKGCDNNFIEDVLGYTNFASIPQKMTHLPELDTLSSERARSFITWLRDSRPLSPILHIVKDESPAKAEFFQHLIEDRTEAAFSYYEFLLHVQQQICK

[2] = compound: CC1=C(SC2=C1C(=N[C@H](C3=NN=C(N32)C)CC(=O)N)C4=CC=C(C=C4)Cl)C
Method in brief: as §1

[3] = compound: CC1=C2C(=CC=C1)N=C(N(C2=O)C3=CC=CC=C3C)CN4C=NC5=C(N=CN=C54)N
Method in brief: as §1

[4] = compound: Cc1sc2c(c1C)C(c1ccc(Cl)cc1)=N[C@@H](CC(=O)OC(C)(C)C)c1nnc(C)n1-2
Method in brief: as §1

[5] = compound: c1ccc([C@@H]2C[C@H]2NC2CCNCC2)cc1
Method in brief: as §1

Measured: log2 fold change

SART3, A0A499FI31
inactive: [1] -0.008 | [2] 0.015 | [3] 0.056 | [4] -0.08 | [5] -0.006

SAR1B (UniProt Q9Y6B6)
inactive: [1] -0.012 | [2] 0.038 | [3] 0.037 | [4] -0.037 | [5] -0.026

SEC23B (UniProt Q15437)
inactive: [1] -0.005 | [2] 0.077 | [3] 0.058 | [4] -0.018 | [5] -0.058

SCAMP2 (UniProt O15127)
inactive: [1] 0.061 | [2] 0.026 | [3] -0.041 | [4] -0.105 | [5] -0.048

SBNO1 (UniProt A3KN83)
inactive: [1] -0.046 | [2] 0.054 | [3] 0.055 | [4] -0.011 | [5] -0.017

RTN3 (UniProt O95197)
inactive: [1] -0.001 | [2] 0.074 | [3] 0.044 | [4] -0.039 | [5] -0.011

Quoted from the entries so far (2 entries):
SAR1B (UniProt Q9Y6B6)
inactive: [1] -0.012 | [2] 0.038 | [3] 0.037 | [4] -0.037 | [5] -0.026

SEC23B (UniProt Q15437)
inactive: [1] -0.005 | [2] 0.077 | [3] 0.058 | [4] -0.018 | [5] -0.058

(further entries)

SCAF8 isoform 2 (UniProt Q9UPN6)
inactive: [1] -0.072 | [2] 0.099 | [3] 0.254 | [4] -0.016 | [5] 0.012

S100P (UniProt P25815)
inactive: [1] -0.073 | [2] 0.075 | [3] -0.01 | [4] -0.193 | [5] -0.113

SEC24B isoform 3 (UniProt O95487)
inactive: [1] 0.027 | [2] -0.001 | [3] 0.088 | [4] 0.043 | [5] 0.091
